Measurements reported in PubChem BioAssay AID1159584 (Peter MacCallum Cancer Centre, 2016)
Purpose: 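Genes that CDH1-null MCF10A cells selectively depend on to survive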 (primary screen). Cells: human MCF10A breast epithelial cells, parental and CDH1-null. Reagents: siRNA against human genes. Detection: 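Cell viability by CellTiter-Glo ATP luminescence, each line scaled to the mean of mock wells across plates, then CDH1-null over parental ratio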. Scale: CDH1-null / parental viability ratio: higher = CDH1-null cells survive relatively better than parental.
This is one part, drawn at random, of about 18,000 deposited reagents. Reagents against one gene are numbered here. Further read-outs or replicates are left out here. Not stated in the record: the amount of reagent, the time to read-out.

| gene symbol | reagent | CDH1-null / parental viability ratio |
| --- | --- | --- |
| TRIO (trio Rho guanine nucleotide exchange factor) | 1 | 0.96 |
| OR9Q2 (olfactory receptor family 9 subfamily Q member 2) | 1 | 0.61 |
| DCAF17 (DDB1 and CUL4 associated factor 17) | 1 | 1.01 |
| ZCCHC17 (zinc finger CCHC-type containing 17) | 1 | 1.14 |
| RBFOX3 (RNA binding fox-1 homolog 3) | 1 | 0.85 |
| RBFOX3 (RNA binding fox-1 homolog 3) | 2 | 1.13 |
| EVL (Enah/Vasp-like) | 1 | 1.05 |
| H2AC8 (H2A clustered histone 8) | 1 | 1.07 |
| CNGB3 (cyclic nucleotide gated channel subunit beta 3) | 1 | 1.37 |
| PRKAR1B (protein kinase cAMP-dependent type I regulatory subunit beta) | 1 | 1.02 |
| FANCD2OS (FANCD2 opposite strand) | 1 | 1.13 |
| PCDHB4 (protocadherin beta 4) | 1 | 0.91 |
| DAP3 (death associated protein 3) | 1 | 0.64 |
| DSCAML1 (DS cell adhesion molecule like 1) | 1 | 0.97 |
| CNBD2 (cyclic nucleotide binding domain containing 2) | 1 | 0.97 |
| CIDEA (cell death inducing DFFA like effector a) | 1 | 0.76 |
| ZSCAN31 (zinc finger and SCAN domain containing 31) | 1 | 0.95 |
| GLI4 (GLI family zinc finger 4) | 1 | 1.75 |
| SERPINH1 (serpin family H member 1) | 1 | 1.09 |
| RORB (RAR related orphan receptor B) | 1 | 0.98 |
| ABCC12 (ATP binding cassette subfamily C member 12) | 1 | 0.86 |
| CBLN1 (cerebellin 1 precursor) | 1 | 0.73 |
| PODN (podocan) | 1 | 1 |
| MYL12B (myosin light chain 12B) | 1 | 1.32 |
| VEZT (vezatin, adherens junctions transmembrane protein) | 1 | 0.95 |
| CDH18 (cadherin 18) | 1 | 1.35 |
| SERPINA7 (serpin family A member 7) | 1 | 0.99 |
| KCNE5 | 1 | 1.15 |
| MORF4L2 (mortality factor 4 like 2) | 1 | 0.9 |
| KRTAP4-4 (keratin associated protein 4-4) | 1 | 0.91 |
| RPAP1 (RNA polymerase II associated protein 1) | 1 | 1.17 |
| MMGT1 (membrane magnesium transporter 1) | 1 | 0.9 |
| OCIAD1 (OCIA domain containing 1) | 1 | 0.87 |
| PEDS1-UBE2V1 (PEDS1-UBE2V1 readthrough) | 1 | 1.11 |
| NUP50 (nucleoporin 50) | 1 | 0.79 |
| NADK (NAD kinase) | 1 | 0.86 |
| TPM1 (tropomyosin 1) | 1 | 1.28 |
| OR4K13 (olfactory receptor family 4 subfamily K member 13) | 1 | 1.08 |
| HTR1F (5-hydroxytryptamine receptor 1F) | 1 | 0.89 |
| FGF8 (fibroblast growth factor 8) | 1 | 0.98 |
| TFAP2E (transcription factor AP-2 epsilon) | 1 | 1.06 |
| ZFHX2 (zinc finger homeobox 2) | 1 | 1.03 |
| THAP4 (THAP domain containing 4) | 1 | 0.93 |
| OR52A5 (olfactory receptor family 52 subfamily A member 5) | 1 | 1.14 |
| MZT1 (mitotic spindle organizing protein 1) | 1 | 1.04 |
| PTH2R (parathyroid hormone 2 receptor) | 1 | 1.4 |
| IQCF1 (IQ motif containing F1) | 1 | 1.05 |
| COX7B2 (cytochrome c oxidase subunit 7B2) | 1 | 1.02 |
| GPR176 (G protein-coupled receptor 176) | 1 | 1.38 |
| SIDT2 (SID1 transmembrane family member 2) | 1 | 0.9 |
| TRIM49B (tripartite motif containing 49B) | 1 | 0.97 |
| SCGB1C1 (secretoglobin family 1C member 1) | 1 | 1 |
| RBM45 (RNA binding motif protein 45) | 1 | 1.13 |
| PYCR1 (pyrroline-5-carboxylate reductase 1) | 1 | 1.15 |
| GIN1 (gypsy retrotransposon integrase 1) | 1 | 0.78 |
| VGLL3 (vestigial like family member 3) | 1 | 0.96 |
| EPHB6 (EPH receptor B6) | 1 | 1.19 |
| CD1D (CD1d molecule) | 1 | 0.82 |
| RBM25 (RNA binding motif protein 25) | 1 | 0.59 |
| SCRIB (scribble planar cell polarity protein) | 1 | 0.93 |
| LCN1 (lipocalin 1) | 1 | 0.97 |
| PRELID3A (PRELI domain containing 3A) | 1 | 1.16 |
| SLC7A6OS | 1 | 1.29 |
| RAB2A (RAB2A, member RAS oncogene family) | 1 | 0.92 |
| IL36B (interleukin 36 beta) | 1 | 0.73 |
| TRPV2 | 1 | 1.26 |
| CHRNB4 (cholinergic receptor nicotinic beta 4 subunit) | 1 | 1.19 |
| DENND4C (DENN domain containing 4C) | 1 | 0.84 |
| NCF1 (neutrophil cytosolic factor 1) | 1 | 1.08 |
| PAPLN (papilin, proteoglycan like sulfated glycoprotein) | 1 | 1.04 |
| TMEM175 (transmembrane protein 175) | 1 | 1.34 |
| SETMAR (SET and mariner transposase domain methyltransferase) | 1 | 1.02 |
| SGMS2 (sphingomyelin synthase 2) | 1 | 0.91 |
| RNF39 (ring finger protein 39) | 1 | 0.92 |
| SOSTDC1 (sclerostin domain containing 1) | 1 | 1.2 |
| CD109 (CD109 molecule) | 1 | 1.07 |
| UBE2B (ubiquitin conjugating enzyme E2 B) | 1 | 1.11 |
| OR9G9 (olfactory receptor family 9 subfamily G member 9) | 1 | 0.89 |
| PRMT3 (protein arginine methyltransferase 3) | 1 | 1.04 |
| MAPK9 (mitogen-activated protein kinase 9) | 1 | 0.89 |
| KRT24 (keratin 24) | 1 | 1.11 |
| UGT2A3 (UDP glucuronosyltransferase family 2 member A3) | 1 | 1.19 |
| CLDN18 (claudin 18) | 1 | 1.1 |
| MAPK4 (mitogen-activated protein kinase 4) | 1 | 0.88 |
| UBE2G2 (ubiquitin conjugating enzyme E2 G2) | 1 | 1.18 |
| DNMT1 (DNA methyltransferase 1) | 1 | 0.99 |
| SZRD1 (SUZ RNA binding domain containing 1) | 1 | 0.87 |

A portion taken from the entries so far, for reference:
| gene symbol | reagent | CDH1-null / parental viability ratio |
| --- | --- | --- |
| RBFOX3 (RNA binding fox-1 homolog 3) | 2 | 1.13 |
| EVL (Enah/Vasp-like) | 1 | 1.05 |
| H2AC8 (H2A clustered histone 8) | 1 | 1.07 |
| CNGB3 (cyclic nucleotide gated channel subunit beta 3) | 1 | 1.37 |
